# Test results published in paper PMC7819943, “Rice protein-binding microarrays: a tool to detect cis-acting elements near promoter regions in rice”.
# Chains of the proteins cited; added tags and fusions are not shown.
# UniProt Q0JBA9, entry or part of it: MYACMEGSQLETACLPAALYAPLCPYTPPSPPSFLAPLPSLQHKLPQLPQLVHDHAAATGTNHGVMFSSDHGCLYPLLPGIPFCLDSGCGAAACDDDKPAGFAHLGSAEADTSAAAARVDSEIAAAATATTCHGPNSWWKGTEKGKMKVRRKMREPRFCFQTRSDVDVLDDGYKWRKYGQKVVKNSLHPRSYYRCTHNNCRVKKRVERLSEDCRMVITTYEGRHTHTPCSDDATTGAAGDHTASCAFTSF
# Some of the results follow.
# Target: OsWRKY34 (Oryza sativa, UniProt Q0JBA9 1-250)
# Experiment: protein-binding microarray (RPBM); PBS, 2% BSA, 51.3 ng/ul salmon testes DNA, 50 uM zinc acetate, 200 nM TF, 25 C, 1 h; high values mean tight binding
# Settings: protein: recombinant; tags: N-terminal polyhistidine and DsRed monomer fusion (pET32a); label: CyDye5-dUTP incorporated in the synthesized complementary strand; 3' TTTTT single-stranded linker to array surface; dsDNA, one strand shown
# Method in brief: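 The binding signal is fluorescence intensity per feature, in arbitrary units, read on an Axon 4000B scanner. Polyhistidine- and DsRed-tagged transcription factors (N-terminal fusions) from E. coli BL21-CodonPlus were purified on Ni–NTA and applied at 200 nM for 1 h at 25 °C to a double-stranded, BSA-blocked custom Agilent array in buffer with 50 µM zinc acetate.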
row,Sequence,binding signal
1,CATCAGCCTGAGGTTTCCACGAAGTACCATCCCATCTATACGGAGTCACCTAGTGCAG,8690 fluorescence intensity (a.u.)
2,CCTCGCTCTCCATGGTGGTGGTGGTGGTCAGGTGGTGGGGCGGAGTCACCTAGTGCAG,18800 fluorescence intensity (a.u.)
3,ACTCCACTCGCTCCCTCCCATCAGCGTTTCGCTCTCGTTTCGGAGTCACCTAGTGCAG,8580 fluorescence intensity (a.u.)
4,TTCACCTCGATCTCCTCCGGGCAAACCGCGACATTTGAAACGGAGTCACCTAGTGCAG,9140 fluorescence intensity (a.u.)
5,CTCTGTCTCTCTTCTTCTCTCTACTTCGATAGCCAAAGCTCGGAGTCACCTAGTGCAG,8490 fluorescence intensity (a.u.)
6,ACCACTCACCTCATGATTTTCGTTGTATTCGTTCCAGTCCCGGAGTCACCTAGTGCAG,20000 fluorescence intensity (a.u.)
7,TTCTGTTTTTTTATTTTTCCAAAGTAATTGCAATACCTACCGGAGTCACCTAGTGCAG,9740 fluorescence intensity (a.u.)
8,CCATCTCACTGACTAGCTCGAGCTCACCATGGAATTCTCCCGGAGTCACCTAGTGCAG,8570 fluorescence intensity (a.u.)
9,GTTCAGGTCGTCTGCATTGTTCACTGGTACTGTCCATATACGGAGTCACCTAGTGCAG,10100 fluorescence intensity (a.u.)
10,ATTAGGTCGCGTATAGGGATGGTAGTTTTGCTAGTTTGTCCGGAGTCACCTAGTGCAG,9610 fluorescence intensity (a.u.)
11,GCAGTAATTAGCTTGTGCACCTTACCTTCTGATGCAGCTCCGGAGTCACCTAGTGCAG,10100 fluorescence intensity (a.u.)
12,TATGTATGGGTCTTTTTATGGGTCTTACGGATAGTAACTTCGGAGTCACCTAGTGCAG,8450 fluorescence intensity (a.u.)
13,GAACTAGTCCGCCTAATTGTTGGCTCTCTTATCTCTTCATCGGAGTCACCTAGTGCAG,12100 fluorescence intensity (a.u.)
14,CAAACCCCACCGCGACCGCGACTCCGACGTCTCCGCCACGCGGAGTCACCTAGTGCAG,8050 fluorescence intensity (a.u.)
15,CAGTACTTCTCTCCGTCCGTTCTCCTCCCTACTTCTCTCTCGGAGTCACCTAGTGCAG,8210 fluorescence intensity (a.u.)
16,GGGATCTGTTTTCCTACTCACGTGTATTAACTAAACACTCCGGAGTCACCTAGTGCAG,14900 fluorescence intensity (a.u.)
17,AGGCGGGGATTTGCTAGGGTTTTTCCGAAGGGATGGAGGACGGAGTCACCTAGTGCAG,8710 fluorescence intensity (a.u.)
18,CTAACCCCTGTCGTATTAGCATCATATCGTCGTCGTATGTCGGAGTCACCTAGTGCAG,9850 fluorescence intensity (a.u.)
19,AAGCACCTGCGAGGCTTACCGTTCTTGCTCGCCCGCCGCCCGGAGTCACCTAGTGCAG,9180 fluorescence intensity (a.u.)
20,AACCATATTTTCATTTAAATTACTTAGTTTTGACATTAATCGGAGTCACCTAGTGCAG,8800 fluorescence intensity (a.u.)
21,CACCTGATTGCCATTGTCCGTGAATTACGCTTTTACGGTTCGGAGTCACCTAGTGCAG,10900 fluorescence intensity (a.u.)
22,CCATCCACCGCGATTTTCACCCGCGCTCTCGCCACCACGCCGGAGTCACCTAGTGCAG,9390 fluorescence intensity (a.u.)
23,GGTGGCGGCAGGTGGTGGGATGGAGTAGCGCACGGGGATGCGGAGTCACCTAGTGCAG,13000 fluorescence intensity (a.u.)

# Part of the list above, with bars between the fields:
row | Sequence | binding signal
1 | CATCAGCCTGAGGTTTCCACGAAGTACCATCCCATCTATACGGAGTCACCTAGTGCAG | 8690 fluorescence intensity (a.u.)
2 | CCTCGCTCTCCATGGTGGTGGTGGTGGTCAGGTGGTGGGGCGGAGTCACCTAGTGCAG | 18800 fluorescence intensity (a.u.)
